Consider one sequence from publication PMC6531819.

The exact form of at least one protein or probe is not confirmed. For some assays here: Negatives hold for the conditions tested. For some assays here: Tags and fusion partners may be left off the protein sequences shown.

Series [1] deals with T1, GST-IbABF4 (Ipomoea batatas (cv. Xushu 18)) (UniProt A0A4Y5QRS9).
T1 sequence (looked up): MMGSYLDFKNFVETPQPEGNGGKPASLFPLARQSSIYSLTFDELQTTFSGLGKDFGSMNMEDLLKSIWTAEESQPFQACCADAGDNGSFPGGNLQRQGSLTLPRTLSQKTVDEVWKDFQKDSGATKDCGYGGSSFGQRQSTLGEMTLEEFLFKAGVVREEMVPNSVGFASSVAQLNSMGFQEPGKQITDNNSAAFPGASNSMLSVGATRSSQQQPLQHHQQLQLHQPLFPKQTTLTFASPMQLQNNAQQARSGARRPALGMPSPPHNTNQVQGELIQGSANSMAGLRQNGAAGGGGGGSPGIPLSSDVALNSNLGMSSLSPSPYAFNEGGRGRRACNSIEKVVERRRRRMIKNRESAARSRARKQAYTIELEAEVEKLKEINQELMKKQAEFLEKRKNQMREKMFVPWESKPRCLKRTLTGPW
Put plainly: EMSA. The settings on record: 5 and 10 ug protein, shift increases with protein, self-competition by unlabeled probe abolishes binding; 200 mM HEPES (pH not stated), 5 mM DTT, 1 mM EDTA, 50 mM KCl, 20 pmol poly dI-dC, 30 uL, room temperature 30 min; 8% native PAGE; recombinant protein; residues 1-423. Background: A gel shift assay detects complexes by their altered migration in electrophoresis.

The next series concerns GST. Put plainly: EMSA. As to conditions: 200 mM HEPES (pH not stated), 5 mM DTT, 1 mM EDTA, 50 mM KCl, 20 pmol poly dI-dC, 30 uL, room temperature 30 min; 8% native PAGE; recombinant protein; protein details: GST.

Consider “GGACAGCTGGCGGGACACGTGGCGGGACACGTGGCG (double strand) [ABRE probe (ABRE repeat motif)]”, for which the binding result in series [1] is “binds”; with GST, “no binding”.
